Data on one substance can be found in paper PMC8574307.

Amino acid sequences for entries named in this document (tags omitted).
UniProt P42224: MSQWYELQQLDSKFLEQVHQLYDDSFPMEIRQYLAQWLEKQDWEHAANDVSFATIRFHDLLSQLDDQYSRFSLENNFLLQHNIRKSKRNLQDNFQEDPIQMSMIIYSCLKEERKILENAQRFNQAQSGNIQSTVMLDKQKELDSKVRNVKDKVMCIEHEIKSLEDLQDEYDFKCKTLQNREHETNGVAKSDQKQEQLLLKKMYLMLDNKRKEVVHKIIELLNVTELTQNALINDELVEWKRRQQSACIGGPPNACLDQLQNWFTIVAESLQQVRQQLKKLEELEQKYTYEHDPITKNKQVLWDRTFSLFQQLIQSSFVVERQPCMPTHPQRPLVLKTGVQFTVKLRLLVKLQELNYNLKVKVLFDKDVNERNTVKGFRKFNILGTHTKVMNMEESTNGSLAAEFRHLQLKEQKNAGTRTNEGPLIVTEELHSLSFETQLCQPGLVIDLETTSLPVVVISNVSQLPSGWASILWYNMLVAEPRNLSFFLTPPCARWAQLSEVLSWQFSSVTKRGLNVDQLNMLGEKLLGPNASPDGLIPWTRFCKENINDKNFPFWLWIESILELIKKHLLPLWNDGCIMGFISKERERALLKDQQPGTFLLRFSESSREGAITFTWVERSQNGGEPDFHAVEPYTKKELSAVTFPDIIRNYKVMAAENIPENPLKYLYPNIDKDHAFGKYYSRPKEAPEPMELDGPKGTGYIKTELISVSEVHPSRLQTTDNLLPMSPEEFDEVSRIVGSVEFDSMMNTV

The target in this experiment is STAT1 used as bait in the reciprocal S-pulldown (HEK293-ACE2 cells infected with SARS-CoV-2) (UniProt P42224). Kind of experiment: pull-down.

No constants are given. Whether binding was seen depends on the method and setting. Binding seen in cells or lysates may run through a third protein. Some binding calls cover weakened binding; strength is not graded here.

Turning to “SARS-CoV-2 NSP13 made during infection (from UniProt P0DTD1 5325-5925)”, the binding result is on record as “binds”.
